## Library screening results

Chains of the proteins cited; added tags and fusions are not shown.
UniProt E9BF75, entry or part of it: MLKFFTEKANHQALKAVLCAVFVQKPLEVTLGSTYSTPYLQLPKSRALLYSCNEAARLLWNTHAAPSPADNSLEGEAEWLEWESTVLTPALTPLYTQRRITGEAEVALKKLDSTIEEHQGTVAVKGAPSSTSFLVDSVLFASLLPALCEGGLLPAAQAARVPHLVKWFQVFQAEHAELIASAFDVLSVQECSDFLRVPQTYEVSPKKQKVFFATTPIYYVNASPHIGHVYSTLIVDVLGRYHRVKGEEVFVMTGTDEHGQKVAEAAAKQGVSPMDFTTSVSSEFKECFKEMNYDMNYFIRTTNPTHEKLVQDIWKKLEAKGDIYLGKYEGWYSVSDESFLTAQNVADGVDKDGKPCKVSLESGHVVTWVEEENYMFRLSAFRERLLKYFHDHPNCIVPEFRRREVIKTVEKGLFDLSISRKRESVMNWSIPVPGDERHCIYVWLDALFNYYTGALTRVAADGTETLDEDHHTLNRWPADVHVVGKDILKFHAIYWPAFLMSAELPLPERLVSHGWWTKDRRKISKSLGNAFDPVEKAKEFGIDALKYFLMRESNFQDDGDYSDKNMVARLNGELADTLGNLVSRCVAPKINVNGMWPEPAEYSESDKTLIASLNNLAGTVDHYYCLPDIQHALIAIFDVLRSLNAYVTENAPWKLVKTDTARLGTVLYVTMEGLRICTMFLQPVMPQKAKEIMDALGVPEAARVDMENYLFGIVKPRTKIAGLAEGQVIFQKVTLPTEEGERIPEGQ

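Primary screen of methionyl-tRNA synthetase; the read-out is not stated. Target: Methionyl-tRNA synthetase (putative), Leishmania donovani (UniProt E9BF75). The test concentration is not given. The values are filed as inhibition. Of about 68,000 compounds tested this way, about 24 (0.035%) reached 50% or more in at least one test.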

Results are percentages, as filed.
How 0% and 100% were set is not recorded. Most values in the screen are low, and negative values occur.
This is an unselected part of the compounds tested.

{"compound": "Cn1ccc2c(cnc3nc(-c4ccncc4)nn32)c1=O", "Inhibition": 17.07}
{"compound": "Cc1ccc(NC(=O)C2CSCN2C(=O)c2ccncc2)c(C)c1", "stereo": "configuration not stated", "Inhibition": 15.21}
{"compound": "O=C(CCc1ccc2c(c1)OCO2)N1CCCC(n2cccn2)C1", "stereo": "configuration not stated", "Inhibition": 1.031}
{"compound": "Cc1nc(C(=O)N2CCN(c3ncccn3)[C@@H]3CS(=O)(=O)C[C@@H]32)cs1", "Inhibition": 12.21}
{"compound": "Cc1ncc(CNC(=O)N(CCCO)C2CCc3ccccc32)s1", "stereo": "configuration not stated", "Inhibition": 15.06}
{"compound": "Cc1cnn(CC(C)NCc2ccc(OCc3cccnc3)cc2)c1", "stereo": "configuration not stated", "Inhibition": 20.92}
{"compound": "COCCCC1CCN([C@@H]2c3ccccc3C3(CCNCC3)[C@H]2O)CC1", "Inhibition": 4.732}
{"compound": "Cc1ccc(N2CCO[C@H]3CN(Cc4ccncc4)C[C@H]32)nn1", "Inhibition": 13.8}
{"compound": "Cn1c(NCc2ccc(C(N)=O)cc2)nc2cc(Cl)ccc21", "Inhibition": 17.16}
{"compound": "O=C(N1CCOCC1)N1CCc2ncnc(Oc3cccnc3)c2CC1", "Inhibition": 16.61}
{"compound": "NC(=O)c1cc(NC(=O)NCCc2cc(F)cc(F)c2)ccc1F", "Inhibition": 19.16}
{"compound": "Cc1nn(C)c(C)c1NC(=O)c1cccc(CN2C[C@H]3CC[C@@H](C2)N3)c1", "Inhibition": 12.14}
{"compound": "CN(C)C[C@H]1C[C@@H](CO)CN(C(=O)CCc2nc(Cl)n[nH]2)C1", "Inhibition": 2.466}
{"compound": "CCCc1noc(CNC2CCCN(Cc3noc(C4CC4)n3)C2)n1", "stereo": "configuration not stated", "Inhibition": 13.81}
{"compound": "CN(C)C(=O)CCNC(=O)Nc1sc2ccccc2c1Cl", "Inhibition": 4.261}
{"compound": "Cc1cc(C)nc(CN2CCOC(c3ccc(Cl)cc3)C2)n1", "stereo": "configuration not stated", "Inhibition": 13.17}
{"compound": "CC(C)c1nn(C)c(N(C)C)c1CNC1CCOc2ccccc21", "stereo": "configuration not stated", "Inhibition": 20.99}
{"compound": "COC(=O)NC1(C(=O)NCc2ccc(-c3ccn[nH]3)cc2)CCCC1", "Inhibition": 3.727}
{"compound": "COCCCNC(=O)N1CCN(C(=O)c2nsc3ccccc23)CC1", "Inhibition": 15.16}
{"compound": "Cc1noc(C)c1CN1CCO[C@H]2CN(C(=O)C3CCOCC3)C[C@H]21", "Inhibition": 10}
{"compound": "CC(C)Oc1cccc(CNC(=O)NC(C)(C(=O)O)c2ccco2)c1", "stereo": "configuration not stated", "Inhibition": 18.9}
{"compound": "CS(=O)(=O)CCCSCc1ccc(Br)c(F)c1", "Inhibition": 1.042}
{"compound": "CCN(Cc1ccc2c(c1)OCCO2)C(=O)NC(C)Cn1cccn1", "stereo": "configuration not stated", "Inhibition": 20.48}
{"compound": "CS(=O)(=O)CCN1CCC(=Cc2ccccc2)CC1", "Inhibition": 18.56}
{"compound": "Cc1nn2c(N3CCCC(C(N)=O)C3)cc(-c3ccccc3)nc2c1C", "stereo": "configuration not stated", "Inhibition": 15.6}
{"compound": "CCN(CC)CC1CN(Cc2nccs2)Cc2nccn2C1", "stereo": "configuration not stated", "Inhibition": 12.03}
{"compound": "COCCN(Cc1ccc(F)cc1Cl)C(=O)c1ccncc1", "Inhibition": 3.54}
{"compound": "Cc1ccnn1-c1ccc(C(=O)N2CCN(c3cnccn3)CC2)cc1", "Inhibition": 12.77}
{"compound": "Cc1nc(Cn2cnc3c(c(Br)nn3C)c2=O)cs1", "Inhibition": 3.727}
{"compound": "O=C(NCC1(O)COCCN(Cc2cccc(O)c2)C1)c1cnccn1", "stereo": "configuration not stated", "Inhibition": 11.02}
{"compound": "CCN1CC2(CC1=O)CN(Cc1ccco1)CCN(C(=O)C(C)C)C2", "stereo": "configuration not stated", "Inhibition": 8.934}
{"compound": "c1cnn([C@@H]2CN(Cc3nccs3)[C@@H]3CCCO[C@@H]32)c1", "Inhibition": 14.98}
{"compound": "Cc1nc(CN2CCCCC2CCc2ccc(O)cc2)co1", "stereo": "configuration not stated", "Inhibition": 6.25}
{"compound": "CC(C)NC(=O)[C@@H]1CN(C(=O)C2CC2)C[C@]12Cc1ccccc1C(=O)N2", "Inhibition": 16.56}
{"compound": "Cc1cccc2nc(CNC(=O)N3CCC(N4CC=CC4)C3)cn12", "stereo": "configuration not stated", "Inhibition": 15.8}
{"compound": "O=C(CC1CC1)N1CCC2(CC1)CN(CCn1cccn1)C(=O)CO2", "Inhibition": 9.408}
{"compound": "Cc1cnn(CC2CN(Cc3nc(N)c4ccccc4n3)CCO2)c1", "stereo": "configuration not stated", "Inhibition": 2.778}
{"compound": "CCc1ccc2nc(NCC(O)CO)cc(C)c2c1", "stereo": "configuration not stated", "Inhibition": 7.219}
{"compound": "COc1nc2c(cc1C(=O)NC(C)Cc1cc(C)n[nH]1)CCC2", "stereo": "configuration not stated", "Inhibition": 4.802}

Repeated from the top, 4 entries:

| Compound | Inhibition |
|---|---|
| `Cn1ccc2c(cnc3nc(-c4ccncc4)nn32)c1=O` | 17.07% |
| `Cc1ccc(NC(=O)C2CSCN2C(=O)c2ccncc2)c(C)c1` (configuration not stated) | 15.21% |
| `O=C(CCc1ccc2c(c1)OCO2)N1CCCC(n2cccn2)C1` (configuration not stated) | 1.031% |
| `Cc1nc(C(=O)N2CCN(c3ncccn3)[C@@H]3CS(=O)(=O)C[C@@H]32)cs1` | 12.21% |

The values are deposited in ChEMBL (CHEMBL3988442, “University of Dundee, Small-Polar-MMV Screening Library” (2021)).